Data set [1] can be described thus: general procedure: Fmoc solid-phase peptide synthesis; Fmoc-NH-SAL resin; DIC / 1-hydroxybenztriazole. Conditions: whole synthesis.
The nature of data set [2]: general procedure: Fmoc solid-phase peptide synthesis; (2-chloro) trityl chloride resin; DIC / 1-hydroxybenztriazole. Conditions: whole synthesis, scale 0.30 mmol.

For three substances, crude mass results are on record in patent US11535647 (dated 2022).

Ac-ALRAL-NH2 gave a crude mass in data set [1] (scale 0.15 mmol) of 90.6 mg.
In data set [1] (scale 0.1 mmol), Ac-YFYPEL-NH2 showed a crude mass of 90.6 mg.
The substance H-YERAKSNM-OH showed a crude mass in data set [2] of 179.5 mg.
